Data as given in PubChem BioAssay AID504744 (Drosophila RNAi Screening Center, 2011).

- Purpose: 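Uncover factors, including feedback loops, that control dAkt activation in fly cells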 (primary screen)
- System: Drosophila Kc167 cells
- Reagent: long dsRNA against Drosophila genes, 250 ng dsRNA per well of a 384-well plate
- Time to read-out: 3 days of knock-down, then overnight serum-free starvation before stimulation
- Challenge: bovine insulin at 387 nM for 10 minutes after 12 h without serum
- Detection: 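In-cell antibody fluorescence for phospho-dAkt in each well over DNA-dye signal, with log2 residuals expressed as z-scores adjusted for cell count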
- Hit rule: 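Under insulin, a gene counts as a hit if the average z-score of two replicates lies above 2.5 or below -2.5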
The deposit covers about 23,000 reagents; this is an unselected part of those with a known target gene and a result. Of all reagents, 98 (0.43%) were called active. 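Only hit calls are given; the phospho-dAkt signals, z-scores and hit direction were not deposited.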 Names joined by + are all predicted targets of the reagent. Reagent sequences are not shown.

| target | DRSC id | Outcome |
| --- | --- | --- |
| CG31626 + CG8677 | DRSC21844 | inactive |
| CG5262 | DRSC11773 | inactive |
| Spt5 | DRSC07556 | inactive |
| Ccm3 | DRSC15711 | inactive |
| CG15247 | DRSC17976 | inactive |
| iPLA2-VIA | DRSC10699 | inactive |
| CG7248 | DRSC10788 | inactive |
| ema | DRSC14536 | inactive |
| CG9570 | DRSC20687 | inactive |
| CG34305 | DRSC11995 | inactive |
| zda | DRSC06936 | inactive |
| CG10845 | DRSC14272 | inactive |
| yem | DRSC14865 | inactive |
| yem | DRSC17097 | inactive |
| mthl7 | DRSC10852 | inactive |
| CG16721 | DRSC18113 | inactive |
| CG10171 | DRSC09711 | inactive |
| Prosalpha5 | DRSC07514 | inactive |
| CG17233 | DRSC10259 | inactive |
| RASSF8 | DRSC15707 | inactive |
| Syt14 | DRSC12331 | inactive |
| CG7953 | DRSC01902 | inactive |
| CG34029 | DRSC03909 | inactive |
| Tom40 | DRSC18796 | inactive |
| CG4839 | DRSC02783 | inactive |
| CG4839 | DRSC02784 | inactive |
| CG34225 | DRSC05270 | inactive |
| Jhbp13 | DRSC02913 | inactive |
| CG5693 | DRSC02878 | inactive |
| Gart | DRSC03481 | inactive |
| CG30001 | DRSC05191 | inactive |
| CG8478 | DRSC16427 | inactive |
| HemK1 | DRSC03253 | inactive |
| Sfp53D | DRSC05625 | inactive |
| mthl12 | DRSC12964 | inactive |
| CG13445 | DRSC09992 | inactive |
| CG6357 | DRSC06979 | inactive |
| Lint-O | DRSC18468 | inactive |
| CG11658 | DRSC09852 | inactive |
| CG13398 | DRSC02268 | inactive |
| CG1789 | DRSC18140 | inactive |
| tub | DRSC12389 | inactive |
| tub | DRSC22800 | inactive |
| dsb | DRSC08407 | inactive |
| dsb | DRSC08542 | inactive |
| RpS15 | DRSC07151 | inactive |
| alpha-Man-Ia | DRSC17642 | inactive |
| alpha-Man-Ia | DRSC18162 | inactive |
| alpha-Man-Ia | DRSC18163 | inactive |
| alpha-Man-Ia | DRSC18735 | inactive |
| fng | DRSC11455 | inactive |
| fng | DRSC11887 | inactive |
| fng | DRSC21935 | inactive |
| CCDC151 | DRSC10131 | inactive |
| eater | DRSC15969 | inactive |
| eater | DRSC22254 | inactive |
| Spt | DRSC07123 | inactive |
| Nnp-1 | DRSC02165 | inactive |
| CG18661 | DRSC02690 | inactive |
| ASPP | DRSC04305 | inactive |
| HSPC300 | DRSC22880 | inactive |
| tty | DRSC20588 | inactive |
| CG17134 | DRSC02583 | inactive |
| CG14696 | DRSC14919 | inactive |

Part of the list above in another layout.
target,DRSC id,Outcome
CCDC151,DRSC10131,inactive
eater,DRSC15969,inactive
eater,DRSC22254,inactive
Spt,DRSC07123,inactive
Nnp-1,DRSC02165,inactive
